Laboratory results: the supplement of paper PMC10849652
Some of the results follow.

Chains of the proteins cited; added tags and fusions are not shown. Lines headed by an entry give the natural chain unless they say otherwise; changes in a name come on top.
UniProt Q9NW81: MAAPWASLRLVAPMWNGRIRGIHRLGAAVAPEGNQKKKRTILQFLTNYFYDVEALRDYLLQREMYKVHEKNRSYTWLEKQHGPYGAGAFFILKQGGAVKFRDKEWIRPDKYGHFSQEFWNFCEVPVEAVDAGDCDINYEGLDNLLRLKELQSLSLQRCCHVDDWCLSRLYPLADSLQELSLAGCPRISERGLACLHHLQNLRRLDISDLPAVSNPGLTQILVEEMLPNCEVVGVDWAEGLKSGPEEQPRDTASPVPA
UniProt Q9NVM6: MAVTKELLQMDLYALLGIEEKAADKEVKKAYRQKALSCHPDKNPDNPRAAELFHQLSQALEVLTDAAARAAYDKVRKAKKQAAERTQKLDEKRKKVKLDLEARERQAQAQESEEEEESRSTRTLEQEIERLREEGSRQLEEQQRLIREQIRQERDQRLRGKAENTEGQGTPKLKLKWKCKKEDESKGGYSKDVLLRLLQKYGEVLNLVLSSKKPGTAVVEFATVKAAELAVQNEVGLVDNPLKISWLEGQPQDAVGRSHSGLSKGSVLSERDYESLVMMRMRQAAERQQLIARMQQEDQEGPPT
UniProt Q96N67: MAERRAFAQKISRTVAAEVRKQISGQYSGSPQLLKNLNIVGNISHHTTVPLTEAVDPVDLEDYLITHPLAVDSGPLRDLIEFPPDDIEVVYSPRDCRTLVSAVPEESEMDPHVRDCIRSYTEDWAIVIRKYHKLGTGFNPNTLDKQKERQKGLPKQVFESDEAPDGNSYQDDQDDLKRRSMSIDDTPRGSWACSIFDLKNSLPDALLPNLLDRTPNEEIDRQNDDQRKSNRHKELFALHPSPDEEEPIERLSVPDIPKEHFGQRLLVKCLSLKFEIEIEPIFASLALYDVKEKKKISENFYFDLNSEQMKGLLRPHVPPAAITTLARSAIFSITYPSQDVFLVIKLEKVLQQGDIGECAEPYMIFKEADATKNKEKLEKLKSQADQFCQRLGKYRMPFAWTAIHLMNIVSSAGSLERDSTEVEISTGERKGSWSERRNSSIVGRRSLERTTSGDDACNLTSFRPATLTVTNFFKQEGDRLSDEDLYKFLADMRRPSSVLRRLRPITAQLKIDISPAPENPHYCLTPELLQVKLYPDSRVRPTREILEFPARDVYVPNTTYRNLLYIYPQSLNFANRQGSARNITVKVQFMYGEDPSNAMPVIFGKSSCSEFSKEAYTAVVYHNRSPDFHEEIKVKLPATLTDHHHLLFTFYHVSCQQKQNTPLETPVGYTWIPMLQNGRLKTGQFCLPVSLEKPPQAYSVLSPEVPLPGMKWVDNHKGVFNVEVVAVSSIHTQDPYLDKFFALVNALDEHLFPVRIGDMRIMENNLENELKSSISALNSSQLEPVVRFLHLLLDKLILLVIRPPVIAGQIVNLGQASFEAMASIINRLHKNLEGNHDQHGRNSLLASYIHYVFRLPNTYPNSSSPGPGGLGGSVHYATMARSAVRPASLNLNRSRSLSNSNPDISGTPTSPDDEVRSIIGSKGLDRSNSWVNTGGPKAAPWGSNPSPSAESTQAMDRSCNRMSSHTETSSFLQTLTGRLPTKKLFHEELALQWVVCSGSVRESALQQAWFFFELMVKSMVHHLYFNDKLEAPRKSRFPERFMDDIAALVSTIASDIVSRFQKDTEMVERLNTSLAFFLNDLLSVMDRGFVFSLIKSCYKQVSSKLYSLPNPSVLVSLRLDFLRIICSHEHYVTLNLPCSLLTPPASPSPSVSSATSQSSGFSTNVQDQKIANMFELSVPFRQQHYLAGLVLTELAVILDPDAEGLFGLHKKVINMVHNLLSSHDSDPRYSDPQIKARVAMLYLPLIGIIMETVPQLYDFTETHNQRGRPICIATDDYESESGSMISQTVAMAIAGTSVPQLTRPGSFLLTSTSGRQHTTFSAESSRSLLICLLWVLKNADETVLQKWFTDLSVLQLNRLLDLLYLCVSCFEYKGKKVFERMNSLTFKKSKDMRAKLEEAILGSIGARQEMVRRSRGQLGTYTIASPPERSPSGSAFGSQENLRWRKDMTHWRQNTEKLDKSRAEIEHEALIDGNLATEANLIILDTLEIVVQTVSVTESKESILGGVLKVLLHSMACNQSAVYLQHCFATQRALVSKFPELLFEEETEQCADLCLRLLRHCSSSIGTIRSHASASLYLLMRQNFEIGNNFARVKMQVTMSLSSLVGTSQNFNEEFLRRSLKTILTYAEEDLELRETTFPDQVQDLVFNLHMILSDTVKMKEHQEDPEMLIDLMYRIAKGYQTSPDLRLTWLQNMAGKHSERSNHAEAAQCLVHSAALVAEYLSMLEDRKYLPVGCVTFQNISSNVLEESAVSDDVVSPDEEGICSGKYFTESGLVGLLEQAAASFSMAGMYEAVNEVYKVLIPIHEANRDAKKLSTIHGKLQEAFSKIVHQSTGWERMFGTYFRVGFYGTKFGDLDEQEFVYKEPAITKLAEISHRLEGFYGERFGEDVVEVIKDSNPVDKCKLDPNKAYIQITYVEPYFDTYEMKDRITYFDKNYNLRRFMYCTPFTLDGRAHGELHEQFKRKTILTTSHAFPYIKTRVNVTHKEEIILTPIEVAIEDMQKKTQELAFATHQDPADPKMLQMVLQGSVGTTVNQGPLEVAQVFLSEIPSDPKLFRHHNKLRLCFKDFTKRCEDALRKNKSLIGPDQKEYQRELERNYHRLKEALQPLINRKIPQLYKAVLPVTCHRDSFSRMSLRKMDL
UniProt Q96KC8: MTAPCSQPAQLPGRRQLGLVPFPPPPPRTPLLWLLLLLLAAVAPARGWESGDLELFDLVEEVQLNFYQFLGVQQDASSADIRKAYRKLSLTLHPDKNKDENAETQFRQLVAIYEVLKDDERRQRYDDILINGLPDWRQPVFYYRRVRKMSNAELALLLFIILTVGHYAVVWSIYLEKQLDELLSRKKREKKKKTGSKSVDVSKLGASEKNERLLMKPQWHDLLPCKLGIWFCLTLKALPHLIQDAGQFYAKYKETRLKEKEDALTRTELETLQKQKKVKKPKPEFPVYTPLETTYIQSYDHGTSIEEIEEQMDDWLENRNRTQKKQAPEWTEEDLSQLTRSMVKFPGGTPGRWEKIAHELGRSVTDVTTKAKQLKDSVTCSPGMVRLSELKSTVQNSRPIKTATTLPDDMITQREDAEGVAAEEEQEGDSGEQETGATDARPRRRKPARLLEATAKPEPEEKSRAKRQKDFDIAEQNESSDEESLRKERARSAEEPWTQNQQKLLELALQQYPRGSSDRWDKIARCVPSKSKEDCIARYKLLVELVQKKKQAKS
UniProt Q8NDZ4: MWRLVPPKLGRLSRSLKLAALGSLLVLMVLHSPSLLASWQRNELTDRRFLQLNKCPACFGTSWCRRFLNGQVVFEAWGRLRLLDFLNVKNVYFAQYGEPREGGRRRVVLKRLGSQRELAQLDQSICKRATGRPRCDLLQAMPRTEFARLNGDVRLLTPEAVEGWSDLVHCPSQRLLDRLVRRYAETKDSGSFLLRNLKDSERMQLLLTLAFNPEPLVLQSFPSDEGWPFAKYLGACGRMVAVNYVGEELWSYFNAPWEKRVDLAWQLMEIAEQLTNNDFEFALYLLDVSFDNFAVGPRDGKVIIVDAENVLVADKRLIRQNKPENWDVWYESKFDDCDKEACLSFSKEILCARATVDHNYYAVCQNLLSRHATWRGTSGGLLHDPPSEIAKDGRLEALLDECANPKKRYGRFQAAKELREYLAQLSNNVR
UniProt Q86SQ9: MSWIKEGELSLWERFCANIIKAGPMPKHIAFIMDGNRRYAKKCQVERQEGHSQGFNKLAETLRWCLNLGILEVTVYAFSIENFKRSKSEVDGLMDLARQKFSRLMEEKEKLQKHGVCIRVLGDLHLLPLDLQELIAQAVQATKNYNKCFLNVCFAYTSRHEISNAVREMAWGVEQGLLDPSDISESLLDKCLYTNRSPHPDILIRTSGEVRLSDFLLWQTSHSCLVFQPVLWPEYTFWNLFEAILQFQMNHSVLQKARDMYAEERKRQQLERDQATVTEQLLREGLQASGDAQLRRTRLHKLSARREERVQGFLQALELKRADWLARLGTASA
UniProt P25686: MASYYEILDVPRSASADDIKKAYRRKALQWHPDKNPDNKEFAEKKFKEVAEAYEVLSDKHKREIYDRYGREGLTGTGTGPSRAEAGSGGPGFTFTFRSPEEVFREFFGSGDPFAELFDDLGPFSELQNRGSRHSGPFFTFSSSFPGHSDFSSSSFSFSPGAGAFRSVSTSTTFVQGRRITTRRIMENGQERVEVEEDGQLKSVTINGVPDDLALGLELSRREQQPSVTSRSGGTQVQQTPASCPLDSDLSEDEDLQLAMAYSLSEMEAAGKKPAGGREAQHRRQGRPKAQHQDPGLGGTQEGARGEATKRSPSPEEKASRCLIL
UniProt Q9UNQ2: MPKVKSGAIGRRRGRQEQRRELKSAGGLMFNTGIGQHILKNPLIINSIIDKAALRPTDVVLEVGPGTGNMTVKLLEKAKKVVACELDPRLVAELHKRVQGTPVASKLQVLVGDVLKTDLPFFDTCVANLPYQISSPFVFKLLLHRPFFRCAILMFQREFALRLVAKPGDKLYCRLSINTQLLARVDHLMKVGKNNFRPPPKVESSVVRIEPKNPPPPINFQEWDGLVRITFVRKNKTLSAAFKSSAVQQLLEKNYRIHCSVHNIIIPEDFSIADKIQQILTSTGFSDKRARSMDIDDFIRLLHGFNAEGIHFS
UniProt Q9BU89: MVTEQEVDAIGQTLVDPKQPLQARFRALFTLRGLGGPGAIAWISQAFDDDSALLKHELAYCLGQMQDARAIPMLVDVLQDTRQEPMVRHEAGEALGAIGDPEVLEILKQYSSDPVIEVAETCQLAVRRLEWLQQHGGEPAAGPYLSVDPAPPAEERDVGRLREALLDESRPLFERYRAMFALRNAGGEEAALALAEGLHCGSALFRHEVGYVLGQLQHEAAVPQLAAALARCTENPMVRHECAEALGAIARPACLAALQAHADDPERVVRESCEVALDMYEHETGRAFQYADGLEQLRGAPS
UniProt Q13268: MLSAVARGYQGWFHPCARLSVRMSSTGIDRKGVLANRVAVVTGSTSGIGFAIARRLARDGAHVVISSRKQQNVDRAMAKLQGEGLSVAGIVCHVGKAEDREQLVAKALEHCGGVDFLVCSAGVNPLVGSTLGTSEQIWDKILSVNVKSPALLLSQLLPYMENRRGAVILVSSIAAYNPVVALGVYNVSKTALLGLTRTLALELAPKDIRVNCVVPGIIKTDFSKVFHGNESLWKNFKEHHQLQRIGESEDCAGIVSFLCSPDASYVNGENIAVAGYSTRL
UniProt P09622, whole entry, looked up: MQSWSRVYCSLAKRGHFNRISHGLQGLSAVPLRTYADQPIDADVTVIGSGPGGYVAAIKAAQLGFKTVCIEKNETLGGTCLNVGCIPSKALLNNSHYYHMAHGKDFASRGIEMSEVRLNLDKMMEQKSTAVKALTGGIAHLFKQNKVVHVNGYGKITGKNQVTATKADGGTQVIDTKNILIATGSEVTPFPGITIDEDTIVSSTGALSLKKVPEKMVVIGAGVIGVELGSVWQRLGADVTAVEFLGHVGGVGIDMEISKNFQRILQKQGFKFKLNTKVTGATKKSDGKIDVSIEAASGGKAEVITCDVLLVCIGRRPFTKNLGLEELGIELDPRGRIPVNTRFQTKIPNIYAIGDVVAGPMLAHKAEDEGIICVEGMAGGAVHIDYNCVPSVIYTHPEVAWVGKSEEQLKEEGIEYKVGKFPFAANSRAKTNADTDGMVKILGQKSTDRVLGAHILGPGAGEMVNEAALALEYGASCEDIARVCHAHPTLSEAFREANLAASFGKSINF
UniProt Q9H3Z4: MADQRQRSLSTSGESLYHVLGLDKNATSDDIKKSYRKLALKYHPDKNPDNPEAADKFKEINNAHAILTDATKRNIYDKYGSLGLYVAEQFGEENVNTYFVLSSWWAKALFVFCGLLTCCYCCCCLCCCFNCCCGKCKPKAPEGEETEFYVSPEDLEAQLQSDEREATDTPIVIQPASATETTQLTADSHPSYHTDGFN
UniProt P10515, whole entry, looked up: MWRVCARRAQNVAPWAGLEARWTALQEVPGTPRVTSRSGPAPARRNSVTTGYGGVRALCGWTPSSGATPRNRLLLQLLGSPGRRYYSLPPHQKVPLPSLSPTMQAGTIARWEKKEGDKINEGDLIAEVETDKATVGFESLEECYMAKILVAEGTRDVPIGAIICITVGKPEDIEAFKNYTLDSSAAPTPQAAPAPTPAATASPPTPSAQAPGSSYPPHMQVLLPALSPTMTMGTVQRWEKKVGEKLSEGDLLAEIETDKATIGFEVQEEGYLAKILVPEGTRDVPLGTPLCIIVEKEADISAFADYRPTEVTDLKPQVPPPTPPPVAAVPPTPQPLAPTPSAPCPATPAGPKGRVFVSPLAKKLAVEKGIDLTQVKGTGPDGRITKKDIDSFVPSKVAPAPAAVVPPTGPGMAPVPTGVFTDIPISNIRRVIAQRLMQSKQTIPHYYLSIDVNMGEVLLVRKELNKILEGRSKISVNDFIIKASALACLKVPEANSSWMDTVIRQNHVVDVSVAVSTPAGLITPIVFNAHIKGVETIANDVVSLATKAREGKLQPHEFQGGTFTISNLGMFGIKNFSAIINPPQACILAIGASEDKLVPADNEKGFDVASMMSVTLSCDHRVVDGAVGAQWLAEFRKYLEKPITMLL

Tests used:
Assay in all cases: log2 fold change, soluble protein after heating vs DMSO (PISA); higher = thermal stabilisation; K562 lysate, 10 uM; active = over 0.2 and 3.5 SD of the protein, either way, in both replicates (recomputed)
[1] = compound: NCC(=O)Nc1ccc(-n2nc(C(F)(F)F)cc2-c2ccc3c(ccc4ccccc43)c2)cc1
Method in brief: (§1)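 Following dounce homogenisation of K562 pellets in PBS pH 7.4 with 1 mM MgCl2, crude extract at 1 mg/mL protein was incubated for 30 min with 10 μM compound. Aliquots were then heated for 3 min over 48°C-58°C and pooled, NP-40 was added to 0.5% at 4°C, and soluble protein was recovered as the supernatant at 21,000xg for 90 min. Channel-sum-equalised TMTpro 16plex LC-MS/MS quantified this protein. Each value, from duplicates, is a log-two fold change in thermal stability relative to solvent controls.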

vorinostat = compound: O=C(CCCCCCC(=O)Nc1ccccc1)NO [vorinostat]
Method in brief: as §1

silmitasertib = compound: O=C(O)c1ccc2c(c1)nc(Nc1cccc(Cl)c1)c1ccncc12 [silmitasertib]
Method in brief: as §1

[2] = compound: O=C1NC(=O)C(c2cnc3ccccn23)=C1c1cn2c3c(cc(F)cc13)CN(C(=O)N1CCCCC1)CC2
Method in brief: as §1

entospletinib = compound: c1cn2cc(-c3ccc4cn[nH]c4c3)nc(Nc3ccc(N4CCOCC4)cc3)c2n1 [entospletinib]
Method in brief: as §1

Measured: log2 fold change

DNPEP (UniProt Q9ULA0)
inactive: [1] -0.008 | vorinostat 0.112 | silmitasertib -0.006 | [2] 0.014 | entospletinib 0.007

DOCK8 (UniProt Q8NF50)
inactive: [1] -0.015 | silmitasertib 0.06 | [2] 0.022 | entospletinib -0.052
active: vorinostat -0.489

DIS3L (UniProt Q8TF46)
inactive: [1] 0.072 | vorinostat -0.243 | silmitasertib 0.061 | [2] 0.027 | entospletinib -0.05

DHX37 (UniProt Q8IY37)
inactive: [1] 0.067 | vorinostat -0.121 | silmitasertib 0.063 | [2] -0.002 | entospletinib 0.063

DGCR8 (UniProt Q8WYQ5)
active: vorinostat -0.38
inactive: [1] -0.027 | silmitasertib -0.041 | [2] -0.054 | entospletinib -0.066

DHX16 (UniProt O60231)
inactive: [1] -0.006 | vorinostat 0.043 | silmitasertib -0.004 | [2] -0.01 | entospletinib 0.052

DOK1 (UniProt Q99704)
inactive: [1] -0.036 | silmitasertib -0.043 | [2] -0.012 | entospletinib -0.011
active: vorinostat -0.297

DMAC2 isoform 4 (UniProt Q9NW81)
inactive: [1] -0.01 | vorinostat 0.157 | silmitasertib -0.032 | [2] 0.182 | entospletinib 0.073

DHODH (UniProt Q02127)
inactive: [1] 0.036 | vorinostat 0.064 | silmitasertib -0.005 | [2] -0.005 | entospletinib -0.053

DNAJC17 (UniProt Q9NVM6)
inactive: [1] 0 | vorinostat -0.02 | silmitasertib -0.025 | [2] -0.1 | entospletinib 0.027

DNAJC12 (UniProt Q9UKB3)
inactive: [1] -0.005 | vorinostat 0.061 | silmitasertib -0.024 | [2] -0.114 | entospletinib 0

DNASE2 (UniProt O00115)
inactive: [1] -0.03 | vorinostat 0.158 | silmitasertib 0 | [2] -0.075 | entospletinib 0.021

DIP2A (UniProt Q14689)
inactive: [1] 0.004 | vorinostat -0.075 | silmitasertib 0.01 | [2] 0.04 | entospletinib -0.014

DOCK7 (UniProt Q96N67)
inactive: [1] 0.032 | silmitasertib 0.053 | [2] -0.019 | entospletinib -0.039
active: vorinostat -0.348

DHX8 (UniProt Q14562)
inactive: [1] -0.06 | vorinostat 0.045 | silmitasertib -0.004 | [2] -0.042 | entospletinib -0.006

DNAJC1 (UniProt Q96KC8)
inactive: [1] 0.003 | vorinostat 0.017 | silmitasertib 0.025 | [2] -0.007 | entospletinib -0.032

DNAJC8 (UniProt O75937)
inactive: [1] -0.011 | vorinostat 0.119 | silmitasertib -0.013 | [2] -0.036 | entospletinib 0.02

DIPK2A (UniProt Q8NDZ4)
inactive: [1] -0.129 | vorinostat 0.148 | silmitasertib 0.14 | [2] -0.094 | entospletinib 0

DHDDS isoform 2 (UniProt Q86SQ9)
inactive: [1] -0.004 | vorinostat -0.026 | silmitasertib 0.027 | [2] 0.105 | entospletinib 0.005

DNAJC21 isoform 3 (UniProt Q5F1R6)
inactive: [1] 0.009 | vorinostat -0.198 | silmitasertib 0.031 | [2] -0.029 | entospletinib 0.001

DNAJB2 (UniProt P25686)
inactive: [1] 0.089 | vorinostat 0.115 | silmitasertib -0.059 | [2] -0.146 | entospletinib -0.001

DGKZ (UniProt Q13574)
inactive: [1] 0.036 | vorinostat -0.049 | silmitasertib -0.041 | [2] -0.039 | entospletinib 0

DNAH8 (UniProt Q96JB1)
inactive: [1] 0.134 | vorinostat 0.284 | silmitasertib -0.143 | [2] 0.094 | entospletinib -0.015

DNPH1 (UniProt H0Y8X4)
inactive: [1] -0.029 | vorinostat 0.017 | silmitasertib 0.004 | [2] -0.004 | entospletinib 0.003

DIP2B (UniProt Q9P265)
inactive: [1] 0.011 | vorinostat 0.054 | silmitasertib -0.014 | [2] -0.006 | entospletinib 0.001

DNMT1 isoform 2 (UniProt P26358)
inactive: [1] -0.024 | vorinostat 0.028 | silmitasertib 0.017 | [2] -0.018 | entospletinib 0.001

DIS3 (UniProt Q9Y2L1)
inactive: [1] 0.008 | vorinostat -0.07 | silmitasertib -0.014 | [2] 0.008 | entospletinib 0.072

DNM2 (UniProt P50570)
inactive: [1] 0.011 | silmitasertib 0.061 | [2] -0.021 | entospletinib 0.014
active: vorinostat -0.27

DLG1 isoform 2 (UniProt Q12959)
inactive: [1] -0.005 | vorinostat 0.006 | silmitasertib 0.017 | [2] 0.014 | entospletinib -0.026

DHX9 (UniProt Q08211)
inactive: [1] -0.006 | vorinostat -0.072 | silmitasertib 0.036 | [2] 0 | entospletinib 0.03

DHX30 isoform 2 (UniProt Q7L2E3)
inactive: [1] 0.001 | vorinostat -0.104 | silmitasertib 0.011 | [2] 0.026 | entospletinib 0.021

DMTF1 (UniProt Q9Y222)
inactive: [1] -0.096 | vorinostat 0.004 | silmitasertib 0.022 | [2] -0.012 | entospletinib 0.007

DNAJC9 (UniProt Q8WXX5)
inactive: [1] -0.044 | vorinostat 0.063 | silmitasertib -0.018 | [2] -0.012 | entospletinib 0.015

DHX57 (UniProt Q6P158)
inactive: [1] -0.013 | vorinostat -0.013 | silmitasertib -0.002 | [2] 0.005 | entospletinib -0.047

DNAJB12 (UniProt Q9NXW2)
inactive: [1] 0.053 | vorinostat -0.112 | silmitasertib -0.117 | [2] 0.047 | entospletinib 0.008

DICER1 (UniProt Q9UPY3)
active: vorinostat -0.58
inactive: [1] 0.022 | silmitasertib 0.042 | [2] 0.001 | entospletinib -0.004

DIMT1 (UniProt Q9UNQ2)
inactive: [1] 0.003 | vorinostat 0.072 | silmitasertib 0.015 | [2] -0.028 | entospletinib -0.004

DOHH (UniProt Q9BU89)
inactive: [1] -0.103 | vorinostat 0.004 | silmitasertib 0.024 | [2] 0.001 | entospletinib -0.031

DHRS2 (UniProt Q13268)
inactive: [1] -0.014 | vorinostat 0.079 | silmitasertib 0.002 | [2] 0.004 | entospletinib 0.025

DLD (UniProt P09622)
active: vorinostat -1.96
inactive: [1] -0.003 | silmitasertib 0.004 | [2] 0.008 | entospletinib 0.01

DFFB (UniProt O76075)
active: vorinostat 0.258
inactive: [1] -0.003 | silmitasertib -0.025 | [2] 0.013 | entospletinib -0.011

DHRS4L1 (UniProt P0CG22)
inactive: [1] 0.208 | vorinostat -0.091 | silmitasertib 0.222 | [2] 0.027 | entospletinib -0.033

DNAJC5 (UniProt Q9H3Z4)
inactive: [1] 0.02 | vorinostat 0.101 | silmitasertib -0.071 | [2] -0.03 | entospletinib 0.019

DMXL1 (UniProt Q9Y485)
active: vorinostat -0.237
inactive: [1] 0.022 | silmitasertib 0.044 | [2] -0.013 | entospletinib 0.022

DNAH9 (UniProt Q9NYC9)
inactive: [1] 0.024 | vorinostat 0.052 | silmitasertib -0.053 | [2] 0.035 | entospletinib 0.077

DNM1L isoform 2 (UniProt O00429)
inactive: [1] 0.156 | vorinostat 0.065 | silmitasertib 0.195 | [2] -0.045 | entospletinib 0.27

DNAJC6 isoform 2 (UniProt O75061)
inactive: [1] -0.003 | vorinostat 0.029 | silmitasertib -0.04 | [2] -0.023 | entospletinib 0.005

DNAJC2 (UniProt Q99543)
inactive: [1] -0.057 | vorinostat -0.225 | silmitasertib 0.034 | [2] -0.041 | entospletinib 0.003

DHX29 (UniProt Q7Z478)
inactive: [1] -0.017 | vorinostat -0.034 | silmitasertib -0.027 | [2] -0.034 | entospletinib -0.026

DLAT (UniProt P10515)
inactive: [1] 0.009 | vorinostat 0 | silmitasertib -0.014 | [2] 0.004 | entospletinib -0.008

DNMBP (UniProt Q6XZF7)
inactive: [1] 0.062 | vorinostat 0.021 | silmitasertib -0.014 | [2] 0.087 | entospletinib -0.052

DHRS3 (UniProt O75911)
inactive: [1] 0.032 | vorinostat -0.055 | silmitasertib -0.062 | [2] 0.025 | entospletinib 0.096

DNAJC11 (UniProt Q9NVH1)
inactive: [1] 0.002 | vorinostat 0.003 | silmitasertib 0.018 | [2] -0.032 | entospletinib 0.029
